{"source": "PubChem BioAssay AID588497", "about": "(NMMLSC, 2011)", "note": "About 780 (0.22%) of roughly 360,000 compounds were called active. The inconclusive results got no clear call from the source; some entries with a clear call stand among them for comparison. Cut-off read from the data, not from the text of the source: active = inhibition above about 35% (passing the limit was not always enough); inconclusive = no clear call, values can overlap the other calls.", "data": [{"test_system": "Botulinum neurotoxin type F light chain protease (Clostridium botulinum)", "assay": "BoNT/F light chain protease inhibitors, primary screen, biochemical, flow cytometry, MLPCN library (AID 588497); note: plate controls were buffer without enzyme for full effect and enzyme alone for no effect", "conditions": "Multiplex microsphere protease cleavage assay, at 10 µM, active compounds read high", "values": [{"molecule": "COc1ccc(CN2CCN(c3ccccn3)CC2)c(OC)c1C", "inhibition": "inconclusive: -33.5%"}, {"molecule": "COc1ccc(Br)c(C(=O)OCC(=O)NC(=O)NC2CCCC2)c1", "inhibition": "inconclusive: -14.9%"}, {"molecule": "CCOc1ccccc1Nc1nc(-c2sc(C)nc2C)cs1", "inhibition": "active: 40.6%"}, {"molecule": "Cn1c(=O)cc(Nc2ccccc2)[nH]c1=O", "inhibition": "inconclusive: 13.2%"}, {"molecule": "Cc1ccccc1Nc1ccc([N+](=O)[O-])cn1", "inhibition": "inconclusive: -31.3%"}, {"molecule": "Cc1cccc(-n2nc3c(c2NC(=O)c2ccco2)CS(=O)C3)c1C", "note": "(configuration not stated)", "inhibition": "inactive: 3%"}, {"molecule": "Cc1nn(C)c(C(=O)Sc2cccc(Cl)c2)c1[N+](=O)[O-]", "inhibition": "inconclusive: -10.4%"}, {"molecule": "CN(Cc1ccccc1)C(=O)COc1ccccc1", "inhibition": "inconclusive: 3%"}, {"molecule": "O=C(N/N=C\\C=C\\c1ccc2c(c1)OCO2)c1cccnc1", "inhibition": "inactive: 4.5%"}, {"molecule": "CN(CC(=O)Nc1ccccc1Cl)C(=O)COC(=O)c1cc([N+](=O)[O-])ccc1N1CCOCC1", "inhibition": "inactive: 2.4%"}, {"molecule": "Cc1cccc(/C=N/n2c(-c3ccco3)n[nH]c2=S)c1", "inhibition": "inconclusive: 72.3%"}, {"molecule": "COc1ccc(N2CCN(C3CCCN(Cc4cccc(OC)c4)C3)CC2)cc1", "note": "(configuration not stated)", "inhibition": "inconclusive: 0.6%"}, {"molecule": "CCOC(=O)C1CCN(S(=O)(=O)c2ccc(NC(=O)OC)cc2)CC1", "inhibition": "inactive: -10.6%"}, {"molecule": "CCCCCCSc1ccc([C@@H]2[C@@H]3C(=O)N(C)C(=O)[C@@H]3[C@]3(C(=O)OC)CCCCN23)cc1", "inhibition": "inactive: -8.6%"}, {"molecule": "CCOCCCn1c(=NC(C)=O)c(C#N)cc2c(=O)n3ccccc3nc21", "inhibition": "inconclusive: -25.1%"}, {"molecule": "COC(=O)c1noc(C)c1-c1ccnn1C(=O)c1ccc(Cl)cc1", "inhibition": "inconclusive: -114%"}, {"molecule": "Cn1ncc2c(Nc3ccccc3Cl)nc(Cl)nc21", "inhibition": "inconclusive: -11.5%"}, {"molecule": "O=C(NCC1CCCO1)c1cc(-c2ccc(Cl)cc2Cl)on1", "note": "(configuration not stated)", "inhibition": "inconclusive: 16.4%"}, {"molecule": "Cc1ccc(C)c(NC(=S)N(C)CCO)c1", "inhibition": "inactive: 1.7%"}, {"molecule": "O=C(CSc1nc2nn(-c3ccccc3)c(=O)c-2c2n1CCCCC2)Nc1ccccc1[N+](=O)[O-]", "inhibition": "inactive: 1.2%"}, {"molecule": "CCOc1ccc(NC(=O)CSc2nnc(C)n2CC)cc1", "inhibition": "inconclusive: 6.7%"}, {"molecule": "CCOc1cccc(CN2CCN(CCCc3ccccc3)C(CCO)C2)c1O", "note": "(configuration not stated)", "inhibition": "inconclusive: -14.5%"}, {"molecule": "Cc1cc(C)nc(SCC(=O)c2ccc(F)cc2F)n1", "inhibition": "inactive: 17.5%"}, {"molecule": "Cc1nc(N2CCN(c3ccccc3)CC2)nc2c1C(=O)CC(C)C2", "note": "(configuration not stated)", "inhibition": "inactive: 0.6%"}, {"molecule": "O=C(O)c1ccccc1Sc1ccccc1S(=O)(=O)NC1CCCCC1", "inhibition": "inconclusive: -18.6%"}, {"molecule": "COc1ccc(CCNc2nc(C)cc(C)n2)cc1OC", "inhibition": "inconclusive: -51.4%"}, {"molecule": "NC(=O)c1ccc(NC(=O)Nc2ccc3c(c2)OCO3)cc1", "inhibition": "inactive: -16.2%"}, {"molecule": "C=C(C)Cn1c(SCC(=O)NCc2ccco2)nc2sc3c(c2c1=O)CCC3", "inhibition": "inconclusive: 12%"}, {"molecule": "Cc1oc2ccccc2c1-c1cn2c(n1)SCC2", "inhibition": "inactive: -5%"}, {"molecule": "c1ccc2c(NCCc3c[nH]c4ccccc34)c3ccccc3nc2c1", "inhibition": "inactive: -13.9%"}, {"molecule": "CN1CCN(/C=C(\\C#N)S(=O)(=O)c2ccc(Cl)cc2)CC1", "inhibition": "inconclusive: 56%"}, {"molecule": "Nc1c(C(=O)Nc2nccs2)sc2nc(-c3cccs3)cc(C(F)(F)F)c12", "inhibition": "active: 82%"}, {"molecule": "CC(C)c1nnc(NC(=O)CCC2CCCCC2)s1", "inhibition": "inconclusive: -8.4%"}, {"molecule": "COc1cc(NC(=O)Cc2ccccc2)cc(OC)c1", "inhibition": "inconclusive: 13.4%"}, {"molecule": "COc1ccc(CCC(=O)NNC(=O)c2ccccn2)cc1OC", "inhibition": "inconclusive: -7.6%"}, {"molecule": "O=c1[nH]c(O)c(C=Nc2cc(F)cc(F)c2)c(=O)[nH]1", "inhibition": "inconclusive: -29.1%"}, {"molecule": "Cc1cc(=O)oc(C)c1C(=O)Nc1cccc(F)c1", "inhibition": "inconclusive: 4.2%"}, {"molecule": "CC(=O)Nc1ccc(S(=O)(=O)N(Cc2ccccc2)c2ccccn2)cc1", "inhibition": "inconclusive: 23.5%"}, {"molecule": "COc1ccc2c(/C=C/c3cc[n+](C)cc3)c[nH]c2c1", "inhibition": "inconclusive: -266%"}, {"molecule": "Cc1ccc(O)c(NC(=O)c2cc(-c3ccccc3)on2)c1", "inhibition": "inconclusive: 4.7%"}, {"molecule": "NC(=O)C1CCN(C(=O)C(=O)c2cn(CC(=O)N3CCCC3)c3ccccc23)CC1", "inhibition": "inactive: 6.4%"}, {"molecule": "Cc1cccc(C)c1NC(=O)CNC(=O)CCCc1c[nH]c2ccccc12", "inhibition": "inconclusive: 0.4%"}, {"molecule": "NS(=O)(=O)OCC1CCCCC1", "inhibition": "inactive: -3.1%"}, {"molecule": "O=C(Nc1cccc([N+](=O)[O-])c1)c1cccc(C(=O)Nc2cccc([N+](=O)[O-])c2)c1", "inhibition": "inconclusive: -1.8%"}, {"molecule": "CCOC(=O)Cn1nc(C)n(-c2ccc(Cl)cc2)c1=O", "inhibition": "inactive: -2.5%"}, {"molecule": "CC(=O)c1ccccc1OC(=O)c1ccc([N+](=O)[O-])o1", "inhibition": "inconclusive: -0.8%"}, {"molecule": "O=C(Cn1ccc(NC(=O)OCc2ccccc2)nc1=O)NCCCN1CCCC1=O", "inhibition": "inactive: -2.7%"}, {"molecule": "C#CCN(C[C@H]1[C@H](OC(=O)NCc2ccccc2)[C@H](OC(=O)NCc2ccccc2)C[C@H]2C(=O)N(c3ccccc3)C(=O)[C@@H]12)S(=O)(=O)c1ccc(C)cc1", "inhibition": "inactive: -2.3%"}, {"molecule": "CCOc1ccc(NC(=O)CC(Cc2ccc(Cl)cc2)C(=O)O)cc1", "note": "(configuration not stated)", "inhibition": "active: 42.9%"}, {"molecule": "COc1ccc2oc(=O)c(/C(N)=N/NC(=O)c3ccncc3)cc2c1", "inhibition": "inactive: -3%"}, {"molecule": "Cc1csc2sc(-c3ccnc(SCC(=O)NCc4ccccc4)n3)c(C)c12", "inhibition": "inconclusive: -10.9%"}, {"molecule": "COc1ccc2c(OC)cc(-c3ccccc3)nc2c1", "inhibition": "inconclusive: -131%"}, {"molecule": "CCOC(=O)N1CCN(C(=O)CCc2ccc(S(=O)(=O)NC(C)C)cc2)CC1", "inhibition": "inconclusive: -17.3%"}, {"molecule": "CCOc1ccc(-c2c(C(=O)N/N=C/c3ccc(C)s3)nnn2-c2nonc2N)cc1", "inhibition": "inactive: -7.9%"}, {"molecule": "CCCCOc1cccc(C2/C(=C(/O)c3ccc4c(c3)CC(C)O4)C(=O)C(=O)N2CCN2CCOCC2)c1", "note": "(configuration not stated)", "inhibition": "inconclusive: -24.1%"}, {"molecule": "O=C(NC(=O)c1ccccc1Cl)Nc1ccc(-c2cnco2)cc1", "inhibition": "inconclusive: 118%"}, {"molecule": "CC(C)(C)N(NS(=O)(=O)c1ccc(F)cc1)c1ccccc1", "inhibition": "inactive: -6.7%"}, {"molecule": "CC(OC(=O)CN1C(=O)c2ccccc2C1=O)C(=O)NC1CCCCC1C", "note": "(configuration not stated)", "inhibition": "inconclusive: 17.2%"}, {"molecule": "NC(=S)C1COc2ccccc2O1", "note": "(configuration not stated)", "inhibition": "inconclusive: 16%"}, {"molecule": "CCOc1ccccc1C(c1c(C)n(C)n(-c2ccccc2)c1=O)c1c(C)n(C)n(-c2ccccc2)c1=O", "inhibition": "inconclusive: -2.4%"}, {"molecule": "COc1ccccc1-c1c(C)nn2c(C)c(C(C)=O)cnc12", "inhibition": "inconclusive: -14.2%"}, {"molecule": "COc1ccc(-n2c(CNCCc3ccc(C)cc3)nc3ccccc3c2=O)cc1", "inhibition": "inconclusive: -32.8%"}, {"molecule": "OC(CCCN1CCCCC1)(c1ccccc1)c1ccccc1", "inhibition": "inactive: -0.9%"}, {"molecule": "COc1ccccc1N1C(=S)NC2CS(=O)(=O)CC21", "note": "(configuration not stated)", "inhibition": "inconclusive: -30.8%"}, {"molecule": "CC(=O)Nc1ccc(C2=NN(c3ccccc3)C(c3cccs3)C2)cc1", "note": "(configuration not stated)", "inhibition": "inactive: -8.1%"}, {"molecule": "CC(=O)N(CC(=O)N(CC(=O)O)c1ccc(Cl)cc1)c1ccc(Cl)cc1", "inhibition": "inactive: -10.3%"}, {"molecule": "O=C(Nc1nc2ccccc2s1)c1cccc(S(=O)(=O)N2CCc3ccccc32)c1", "inhibition": "inactive: -6.7%"}, {"molecule": "COc1ccc(C(CNC(=O)c2cc(S(=O)(=O)N3CCCCC3)ccc2C)N2CCCC2)cc1", "note": "(configuration not stated)", "inhibition": "active: 44.9%"}, {"molecule": "CCN(CC)C(=O)CSC(Nc1cccc(F)c1)=C(C#N)C#N", "inhibition": "inconclusive: -13.6%"}, {"molecule": "Cc1cc(O)ccc1N=Cc1c(C(F)(F)F)[nH][nH]c1=O", "inhibition": "inactive: -3%"}, {"molecule": "COc1ccc(/C=C2\\C(=O)NCC(=O)N2C)cc1", "inhibition": "active: 87.7%"}, {"molecule": "CN(C)C(=O)CSc1nnc(NC(=O)CCc2ccccc2)s1", "inhibition": "inconclusive: 18.5%"}, {"molecule": "Cc1ccc(N(CC(=O)NC(C)C)C(=O)CCC(=O)Nc2nccs2)cc1", "inhibition": "inconclusive: 7.7%"}, {"molecule": "CCN(CC)C(=S)Oc1ccc(Cl)cc1Cl", "inhibition": "inconclusive: 23.1%"}, {"molecule": "CCOc1ccc(N(CC(=O)N/N=C(\\C)c2cccc(NC(C)=O)c2)S(=O)(=O)c2ccccc2)cc1", "inhibition": "inconclusive: -7.5%"}, {"molecule": "Cn1cccc1Cc1nnc(SCC(=O)N2CCOCC2)n1-c1ccc(F)cc1", "inhibition": "inactive: -2.9%"}, {"molecule": "Cc1c(Cl)cccc1NC(=O)CN(C1CCCCC1)S(C)(=O)=O", "inhibition": "inconclusive: -15.4%"}, {"molecule": "COc1ccc(O)c(CN2CCCC(N3CCc4ccccc4C3)C2)c1", "note": "(configuration not stated)", "inhibition": "inconclusive: 31.2%"}, {"molecule": "O=C(O)c1cc2ccccc2c2cc(Br)ccc12", "inhibition": "inconclusive: -4.4%"}, {"molecule": "CCN1C(=O)[C@H]2[C@@H](c3ccc(C(F)(F)F)cc3)N[C@]3(CCCN(Cc4ccco4)C3=O)[C@H]2C1=O", "inhibition": "inactive: -6.5%"}, {"molecule": "CCOc1ccc2[nH]cc(C(=O)NCc3ccccc3)c(=O)c2c1", "inhibition": "inconclusive: 11.1%"}, {"molecule": "COc1ccc(Cl)cc1C(=O)Nc1ccc2c(c1)OCCO2", "inhibition": "inconclusive: -12.5%"}, {"molecule": "CCCCNC(=O)c1ccc2nc(CC)c(N(CC)CCOC)n2c1", "inhibition": "inactive: -1.5%"}, {"molecule": "O=C1c2nc3cc(-c4ccco4)[nH]n3c(=O)c2CN1Cc1ccccc1", "inhibition": "inconclusive: -28.1%"}, {"molecule": "NC(=NCc1ccccc1)c1cccc([N+](=O)[O-])c1", "inhibition": "inconclusive: -34.6%"}, {"molecule": "O=C(NCC1CCCN(Cc2cccc(F)c2)C1)c1cccc2ccccc12", "note": "(configuration not stated)", "inhibition": "inconclusive: -17.5%"}, {"molecule": "Cc1ccccc1Oc1ncnc2sccc12", "inhibition": "inactive: 4.5%"}, {"molecule": "COc1ccc(CNC(=O)CCS(=O)(=O)c2ccc3c(c2)NC(=O)CS3)cc1", "inhibition": "inactive: 3.5%"}, {"molecule": "c1csc(-c2ncc3ccccn23)c1", "inhibition": "inactive: 20.6%"}, {"molecule": "c1ccc(Cn2nnc3ccccc32)cc1", "inhibition": "inconclusive: -7.9%"}, {"molecule": "Nc1cc(N)nc(SCc2ccc(Cl)cc2)n1", "inhibition": "inconclusive: -11%"}, {"molecule": "O=C1CC(N(O)c2ccccc2)C(=O)N1c1ccc(Cl)c(Cl)c1", "note": "(configuration not stated)", "inhibition": "inconclusive: 1.2%"}]}]}
